Measured values: the supplement of paper PMC12067093, “Discovery and optimisation of a covalent ligand for TRIM25 and its application to targeted protein ubiquitination” (Chemical Science, 2025)
The other results are listed elsewhere or left out.

The chains behind the UniProt entries cited, without tags or fusion partners. Where a name states a change or a piece, a line headed by the entry shows the natural chain unless it says otherwise.
UniProt P41218: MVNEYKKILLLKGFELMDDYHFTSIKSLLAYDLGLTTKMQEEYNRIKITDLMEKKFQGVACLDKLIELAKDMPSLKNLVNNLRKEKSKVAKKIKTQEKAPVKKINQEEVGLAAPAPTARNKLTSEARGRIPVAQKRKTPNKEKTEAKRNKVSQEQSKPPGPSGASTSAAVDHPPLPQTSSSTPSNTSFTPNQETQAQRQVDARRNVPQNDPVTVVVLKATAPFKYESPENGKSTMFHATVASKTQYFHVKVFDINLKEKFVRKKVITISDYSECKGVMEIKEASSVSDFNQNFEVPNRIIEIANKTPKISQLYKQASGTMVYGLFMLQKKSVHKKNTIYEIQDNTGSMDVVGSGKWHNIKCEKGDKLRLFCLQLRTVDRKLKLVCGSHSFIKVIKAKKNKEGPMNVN
UniProt Q9Y6X9: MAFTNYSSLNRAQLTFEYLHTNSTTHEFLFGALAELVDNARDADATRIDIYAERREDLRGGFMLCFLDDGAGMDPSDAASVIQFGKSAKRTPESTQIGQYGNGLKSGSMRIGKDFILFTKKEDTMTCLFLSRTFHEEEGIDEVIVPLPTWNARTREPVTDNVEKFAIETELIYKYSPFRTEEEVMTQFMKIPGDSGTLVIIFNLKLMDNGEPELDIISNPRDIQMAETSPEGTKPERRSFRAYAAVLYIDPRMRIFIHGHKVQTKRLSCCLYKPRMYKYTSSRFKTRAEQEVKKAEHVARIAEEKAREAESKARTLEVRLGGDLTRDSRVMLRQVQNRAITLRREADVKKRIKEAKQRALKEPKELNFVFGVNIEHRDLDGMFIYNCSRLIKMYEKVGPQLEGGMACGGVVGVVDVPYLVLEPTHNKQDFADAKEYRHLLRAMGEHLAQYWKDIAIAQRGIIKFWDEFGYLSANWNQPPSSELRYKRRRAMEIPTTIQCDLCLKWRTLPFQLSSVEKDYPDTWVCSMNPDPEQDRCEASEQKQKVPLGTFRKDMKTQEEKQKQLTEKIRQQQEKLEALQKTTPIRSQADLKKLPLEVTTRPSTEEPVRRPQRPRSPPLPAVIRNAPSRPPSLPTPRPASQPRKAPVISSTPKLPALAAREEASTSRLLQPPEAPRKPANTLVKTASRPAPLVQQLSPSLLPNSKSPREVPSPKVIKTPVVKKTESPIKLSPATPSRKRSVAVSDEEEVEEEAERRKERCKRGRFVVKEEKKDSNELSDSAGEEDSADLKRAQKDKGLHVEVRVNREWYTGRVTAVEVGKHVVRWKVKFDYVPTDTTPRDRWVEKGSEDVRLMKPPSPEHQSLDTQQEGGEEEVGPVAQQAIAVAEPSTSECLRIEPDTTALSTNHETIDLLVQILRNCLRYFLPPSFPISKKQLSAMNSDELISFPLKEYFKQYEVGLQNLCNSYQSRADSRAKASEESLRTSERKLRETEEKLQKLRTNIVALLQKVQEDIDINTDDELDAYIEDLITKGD
UniProt A9UHW6: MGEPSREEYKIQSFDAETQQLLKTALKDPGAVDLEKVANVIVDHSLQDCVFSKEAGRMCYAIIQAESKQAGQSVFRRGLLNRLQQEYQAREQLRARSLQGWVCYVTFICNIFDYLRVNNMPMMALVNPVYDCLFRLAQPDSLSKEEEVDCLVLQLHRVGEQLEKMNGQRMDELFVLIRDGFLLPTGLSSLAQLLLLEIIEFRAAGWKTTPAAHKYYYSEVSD
UniProt O94851, whole entry, looked up: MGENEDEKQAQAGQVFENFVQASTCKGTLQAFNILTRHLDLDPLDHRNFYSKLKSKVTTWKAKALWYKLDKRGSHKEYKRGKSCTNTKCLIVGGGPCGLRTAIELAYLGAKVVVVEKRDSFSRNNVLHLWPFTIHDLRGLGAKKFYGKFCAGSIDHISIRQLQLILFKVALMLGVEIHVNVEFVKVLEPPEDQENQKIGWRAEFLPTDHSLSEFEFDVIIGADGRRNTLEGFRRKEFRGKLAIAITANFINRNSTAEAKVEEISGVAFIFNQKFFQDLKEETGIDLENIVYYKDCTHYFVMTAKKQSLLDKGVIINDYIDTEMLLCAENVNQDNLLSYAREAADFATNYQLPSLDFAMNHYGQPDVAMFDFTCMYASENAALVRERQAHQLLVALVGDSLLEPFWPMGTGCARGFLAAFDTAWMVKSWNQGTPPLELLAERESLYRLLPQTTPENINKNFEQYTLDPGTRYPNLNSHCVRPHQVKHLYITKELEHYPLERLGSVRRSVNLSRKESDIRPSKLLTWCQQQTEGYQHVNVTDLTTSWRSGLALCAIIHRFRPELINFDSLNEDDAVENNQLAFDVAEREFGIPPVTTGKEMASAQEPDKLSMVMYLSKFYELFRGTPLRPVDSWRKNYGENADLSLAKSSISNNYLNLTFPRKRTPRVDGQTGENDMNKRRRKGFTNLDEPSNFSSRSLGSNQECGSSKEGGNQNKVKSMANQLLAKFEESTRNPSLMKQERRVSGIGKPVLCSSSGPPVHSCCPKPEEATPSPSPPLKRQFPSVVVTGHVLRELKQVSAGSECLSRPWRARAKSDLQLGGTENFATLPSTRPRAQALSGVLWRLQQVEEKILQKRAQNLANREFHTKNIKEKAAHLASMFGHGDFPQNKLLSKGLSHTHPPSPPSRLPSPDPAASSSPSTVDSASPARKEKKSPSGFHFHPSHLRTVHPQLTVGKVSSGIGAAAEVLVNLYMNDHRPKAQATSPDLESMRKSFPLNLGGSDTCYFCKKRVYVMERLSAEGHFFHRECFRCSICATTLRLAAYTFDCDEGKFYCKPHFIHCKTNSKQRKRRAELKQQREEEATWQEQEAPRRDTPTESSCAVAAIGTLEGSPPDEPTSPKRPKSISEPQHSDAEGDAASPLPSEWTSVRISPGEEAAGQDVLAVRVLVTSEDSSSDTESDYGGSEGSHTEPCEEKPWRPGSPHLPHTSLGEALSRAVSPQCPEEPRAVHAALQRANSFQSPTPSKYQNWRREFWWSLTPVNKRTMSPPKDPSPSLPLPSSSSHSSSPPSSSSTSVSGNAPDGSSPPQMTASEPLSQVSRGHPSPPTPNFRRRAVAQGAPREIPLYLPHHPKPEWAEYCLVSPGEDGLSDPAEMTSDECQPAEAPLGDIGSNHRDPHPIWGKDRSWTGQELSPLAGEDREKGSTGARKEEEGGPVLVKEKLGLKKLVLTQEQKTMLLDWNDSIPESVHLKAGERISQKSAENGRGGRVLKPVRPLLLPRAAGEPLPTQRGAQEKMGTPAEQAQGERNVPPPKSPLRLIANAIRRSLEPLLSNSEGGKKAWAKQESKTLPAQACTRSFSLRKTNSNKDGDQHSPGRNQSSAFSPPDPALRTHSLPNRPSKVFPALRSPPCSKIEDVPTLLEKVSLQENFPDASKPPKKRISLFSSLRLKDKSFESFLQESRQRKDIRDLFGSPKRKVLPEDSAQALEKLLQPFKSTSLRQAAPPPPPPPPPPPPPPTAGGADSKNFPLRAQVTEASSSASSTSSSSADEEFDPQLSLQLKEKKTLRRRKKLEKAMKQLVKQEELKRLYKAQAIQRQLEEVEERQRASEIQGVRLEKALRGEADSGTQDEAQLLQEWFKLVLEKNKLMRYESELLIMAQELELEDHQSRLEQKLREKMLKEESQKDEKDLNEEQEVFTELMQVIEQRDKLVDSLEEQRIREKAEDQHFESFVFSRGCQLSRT
UniProt Q9NZW5: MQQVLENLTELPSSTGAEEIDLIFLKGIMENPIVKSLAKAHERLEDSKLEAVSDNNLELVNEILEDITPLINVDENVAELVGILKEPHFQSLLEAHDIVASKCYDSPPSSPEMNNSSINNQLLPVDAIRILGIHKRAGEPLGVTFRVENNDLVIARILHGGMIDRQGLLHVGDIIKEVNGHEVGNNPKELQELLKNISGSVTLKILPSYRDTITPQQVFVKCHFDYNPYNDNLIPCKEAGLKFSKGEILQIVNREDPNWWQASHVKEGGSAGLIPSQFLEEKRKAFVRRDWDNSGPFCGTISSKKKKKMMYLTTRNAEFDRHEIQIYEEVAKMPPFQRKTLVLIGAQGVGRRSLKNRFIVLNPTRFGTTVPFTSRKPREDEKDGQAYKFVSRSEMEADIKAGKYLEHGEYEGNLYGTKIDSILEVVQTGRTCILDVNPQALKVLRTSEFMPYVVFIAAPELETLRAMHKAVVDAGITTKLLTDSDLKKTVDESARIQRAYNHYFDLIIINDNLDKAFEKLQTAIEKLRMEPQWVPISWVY
UniProt Q9Y4U1: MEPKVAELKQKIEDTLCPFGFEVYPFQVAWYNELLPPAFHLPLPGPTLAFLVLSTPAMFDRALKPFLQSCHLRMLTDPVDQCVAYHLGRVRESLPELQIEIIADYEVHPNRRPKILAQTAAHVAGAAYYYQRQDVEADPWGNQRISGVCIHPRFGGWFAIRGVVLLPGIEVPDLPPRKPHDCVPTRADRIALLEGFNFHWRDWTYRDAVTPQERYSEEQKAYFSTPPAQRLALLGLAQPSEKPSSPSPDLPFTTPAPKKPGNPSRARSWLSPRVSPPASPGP
UniProt Q9UBU8, whole entry: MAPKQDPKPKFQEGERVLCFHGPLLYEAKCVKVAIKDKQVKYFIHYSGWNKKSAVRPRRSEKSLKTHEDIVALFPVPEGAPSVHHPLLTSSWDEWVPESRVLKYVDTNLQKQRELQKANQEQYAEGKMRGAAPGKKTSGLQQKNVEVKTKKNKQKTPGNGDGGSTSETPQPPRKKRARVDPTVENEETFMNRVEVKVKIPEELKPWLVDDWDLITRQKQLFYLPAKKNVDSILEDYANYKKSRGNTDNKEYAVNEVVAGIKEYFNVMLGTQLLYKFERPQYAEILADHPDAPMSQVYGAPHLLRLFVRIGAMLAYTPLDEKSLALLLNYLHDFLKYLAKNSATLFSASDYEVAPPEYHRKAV
UniProt Q9Y5U8: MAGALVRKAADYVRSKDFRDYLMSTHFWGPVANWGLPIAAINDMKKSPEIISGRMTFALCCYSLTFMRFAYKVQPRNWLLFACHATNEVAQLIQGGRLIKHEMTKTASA
UniProt Q14149: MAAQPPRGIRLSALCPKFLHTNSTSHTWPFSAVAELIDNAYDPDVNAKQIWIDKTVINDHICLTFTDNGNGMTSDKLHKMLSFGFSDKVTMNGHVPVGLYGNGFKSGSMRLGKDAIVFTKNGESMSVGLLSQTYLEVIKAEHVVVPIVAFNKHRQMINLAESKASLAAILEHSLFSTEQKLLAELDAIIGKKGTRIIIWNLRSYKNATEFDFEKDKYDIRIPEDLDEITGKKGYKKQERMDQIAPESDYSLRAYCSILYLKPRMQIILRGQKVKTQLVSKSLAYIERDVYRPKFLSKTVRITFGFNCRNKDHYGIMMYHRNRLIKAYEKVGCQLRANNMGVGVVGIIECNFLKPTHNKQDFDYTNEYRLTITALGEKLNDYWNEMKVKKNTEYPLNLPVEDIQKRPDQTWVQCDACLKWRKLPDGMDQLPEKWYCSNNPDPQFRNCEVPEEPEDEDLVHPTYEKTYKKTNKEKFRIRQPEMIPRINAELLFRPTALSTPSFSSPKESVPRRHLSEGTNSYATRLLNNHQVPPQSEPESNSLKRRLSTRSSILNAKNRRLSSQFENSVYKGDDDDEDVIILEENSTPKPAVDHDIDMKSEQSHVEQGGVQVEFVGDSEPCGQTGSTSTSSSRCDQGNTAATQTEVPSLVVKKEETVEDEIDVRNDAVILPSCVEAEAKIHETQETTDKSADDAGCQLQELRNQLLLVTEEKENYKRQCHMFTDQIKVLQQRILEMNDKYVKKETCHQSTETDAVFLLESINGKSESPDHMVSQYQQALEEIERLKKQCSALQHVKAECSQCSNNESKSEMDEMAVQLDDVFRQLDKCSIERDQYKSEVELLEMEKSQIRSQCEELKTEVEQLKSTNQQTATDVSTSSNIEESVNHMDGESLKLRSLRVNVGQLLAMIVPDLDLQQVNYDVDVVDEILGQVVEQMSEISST
UniProt Q9BVC4, whole entry, looked up: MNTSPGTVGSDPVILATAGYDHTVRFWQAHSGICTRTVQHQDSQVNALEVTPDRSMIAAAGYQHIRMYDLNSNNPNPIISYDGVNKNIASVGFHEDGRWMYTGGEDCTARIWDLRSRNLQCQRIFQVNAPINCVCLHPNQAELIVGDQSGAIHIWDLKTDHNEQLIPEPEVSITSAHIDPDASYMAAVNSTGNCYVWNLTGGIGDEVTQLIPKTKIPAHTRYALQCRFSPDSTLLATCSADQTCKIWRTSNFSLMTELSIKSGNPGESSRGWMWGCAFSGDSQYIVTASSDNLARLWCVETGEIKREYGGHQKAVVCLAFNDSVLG
UniProt Q9BU76: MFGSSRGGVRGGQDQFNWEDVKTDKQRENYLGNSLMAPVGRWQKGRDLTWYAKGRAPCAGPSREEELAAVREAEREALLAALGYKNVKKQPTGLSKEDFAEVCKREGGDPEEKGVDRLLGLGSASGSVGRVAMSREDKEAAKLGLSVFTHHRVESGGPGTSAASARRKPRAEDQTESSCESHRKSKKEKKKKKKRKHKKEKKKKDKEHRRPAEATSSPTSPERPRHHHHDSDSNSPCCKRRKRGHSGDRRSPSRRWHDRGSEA

Compound: Cc1cc(ccc1-c1ccccc1)C(=O)N1CCCN(CC1)C(=O)CCl [compound 10]
Test: probe-labelled cysteine peptide fold change vs DMSO (competition) (log2 fold change); higher = less target engagement (more negative = stronger competition)
Conditions: 10 µM; THP-1; incubation time: 4 h
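Further: competitive profiling in live THP-1 cells: cysteine peptides tagged with an iodoacetamide desthiobiotin (IA-DTB) probe, intensity after compound treatment relative to DMSO-treated cells.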

Row | Target | probe-labelled cysteine peptide fold change
1 | MNDA_P41218_61_KFQGVACLDK (UniProt P41218) | 0.0878
2 | MOV10_Q9HCE1_650_LVSAQFPIDHFTHIFIDEAGHCMEPESLVAIAGLMEVK (UniProt Q9HCE1) | -0.0194
3 | MORC2_Q9Y6X9_127_KEDTMTCLFLSR (UniProt Q9Y6X9) | 0.138
4 | MIF4GD_A9UHW6_150_EEEVDCLVLQLHR (UniProt A9UHW6) | 0.255
5 | MRPS17_Q9Y2R5_58_TYFAHDALQQCTVGDIVLLR (UniProt Q9Y2R5) | 0.277
6 | MPRIP_Q6WCQ1_831_CLENAHLAQALEAER (UniProt Q6WCQ1) | -0.00756
7 | MRPL18_Q9H0U6_125_NVVACESIGR (UniProt Q9H0U6) | -0.152
8 | MPG_P29372_56_AGQPHSSSDAAQAPAEQPHSSSDAAQAPCPR (UniProt P29372) | -0.206
9 | MICAL2_O94851_411_QAHQLLVALVGDSLLEPFWPMGTGCAR (UniProt O94851) | -0.293
10 | MKI67_P46013_1007_MPCQSLQPEPINTPTHTK (UniProt P46013) | -0.0644
11 | MOGS_Q13724_137_HTCEQGDGVGPYGWEFHDGLSFGR (UniProt Q13724) | -0.0886
12 | MPP6_Q9NZW5_222_CHFDYNPYNDNLIPCK (UniProt Q9NZW5) | 0.21
13 | MMACHC_Q9Y4U1_149_ISGVCIHPR (UniProt Q9Y4U1) | -0.0406
14 | MPG_P29372_222_LCQALAINK (UniProt P29372) | -0.0478
15 | MRPL11_Q9Y3B7_50_GVSINQFCK (UniProt Q9Y3B7) | -0.00407
16 | MRPL24_Q96A35_190_TYVPCLK (UniProt Q96A35) | -0.203
17 | MORF4L1_Q9UBU8_19_VLCFHGPLLYEAK (UniProt Q9UBU8) | 0.421
18 | MKI67_P46013_261_ENVLQYCR (UniProt P46013) | -0.303
19 | MPC1_Q9Y5U8_83_NWLLFACHATNEVAQLIQGGR (UniProt Q9Y5U8) | 0.127

Row | Target | probe-labelled cysteine peptide fold change
20 | MMADHC_Q9H3L0_52_AFSTAGSSGSDESHVAAAPPDICSR (UniProt Q9H3L0) | -0.291
21 | MORC3_Q14149_349_ANNMGVGVVGIIECNFLKPTHNK (UniProt Q14149) | -0.0131
22 | MRPL35_Q9NZE8_150_EFVFCNK (UniProt Q9NZE8) | -0.362
23 | MRPL16_Q9NX20_167_CEFEEVQGFLDQVAHK (UniProt Q9NX20) | -0.11
24 | MRPL2_Q5T653_213_AAGTCGVLLR (UniProt Q5T653) | -0.0421
25 | MON2_Q7Z3U7_592_AELTMAALCGR (UniProt Q7Z3U7) | 0.222
26 | MPHOSPH8_Q99549_99_GYTSDDDTWEPEIHLEDCK (UniProt Q99549) | -0.234
27 | MRPS16_Q9Y3D3_79_HWIGCGAHLSK (UniProt Q9Y3D3) | -0.276
28 | MORC2_Q9Y6X9_387_DLDGMFIYNCSR (UniProt Q9Y6X9) | 0.0728
29 | MRGBP_Q9NV56_38_GPGEAATSPAEETVVWSPEVEVCLFHAMLGHKPVGVNR (UniProt Q9NV56) | -0.087
30 | MLST8_Q9BVC4_34_FWQAHSGICTR (UniProt Q9BVC4) | -0.182
31 | MRPL19_P49406_248_GIRFDLCLTEQQMK (UniProt P49406) | 0.0227
32 | MICAL1_Q8TDZ2_727+747_CHTCEATLWPGGYEQHPGDGHFYCLQHLPQTDHK (UniProt Q8TDZ2) | 0.0338
33 | MKI67_P46013_1479_ELFQTPVCTDKPTTHEK (UniProt P46013) | -0.249
34 | MMTAG2_Q9BU76_58_APCAGPSREEELAAVR (UniProt Q9BU76) | -0.197
35 | MLEC_Q14165_206_VCALYIMAGTVDDVPK (UniProt Q14165) | 0.0709
36 | MIER1_Q8N108_263_CNFDTEEALRR (UniProt Q8N108) | 0.0472
37 | MRPL39_Q9NYK5_133_DCDPGEVNK (UniProt Q9NYK5) | -0.21

Same assay, conditions: 50 µM; THP-1; incubation time: 4 h

Row | Target | probe-labelled cysteine peptide fold change
38 | MNDA_P41218_61_KFQGVACLDK (UniProt P41218) | -0.0793
39 | MOV10_Q9HCE1_650_LVSAQFPIDHFTHIFIDEAGHCMEPESLVAIAGLMEVK (UniProt Q9HCE1) | 0.0327
40 | MORC2_Q9Y6X9_127_KEDTMTCLFLSR (UniProt Q9Y6X9) | 0.165
41 | MIF4GD_A9UHW6_150_EEEVDCLVLQLHR (UniProt A9UHW6) | 0.733
42 | MRPS17_Q9Y2R5_58_TYFAHDALQQCTVGDIVLLR (UniProt Q9Y2R5) | 0.535
43 | MPRIP_Q6WCQ1_831_CLENAHLAQALEAER (UniProt Q6WCQ1) | 0.046
44 | MRPL18_Q9H0U6_125_NVVACESIGR (UniProt Q9H0U6) | 0.104
45 | MPG_P29372_56_AGQPHSSSDAAQAPAEQPHSSSDAAQAPCPR (UniProt P29372) | -0.0477
46 | MICAL2_O94851_411_QAHQLLVALVGDSLLEPFWPMGTGCAR (UniProt O94851) | 0.312
47 | MKI67_P46013_1007_MPCQSLQPEPINTPTHTK (UniProt P46013) | -0.576
48 | MOGS_Q13724_137_HTCEQGDGVGPYGWEFHDGLSFGR (UniProt Q13724) | 0.0374
49 | MPP6_Q9NZW5_222_CHFDYNPYNDNLIPCK (UniProt Q9NZW5) | -0.0199
50 | MMACHC_Q9Y4U1_149_ISGVCIHPR (UniProt Q9Y4U1) | 0.0687
51 | MPG_P29372_222_LCQALAINK (UniProt P29372) | -0.42
52 | MRPL11_Q9Y3B7_50_GVSINQFCK (UniProt Q9Y3B7) | 0.015
53 | MRPL24_Q96A35_190_TYVPCLK (UniProt Q96A35) | 0.0437
54 | MORF4L1_Q9UBU8_19_VLCFHGPLLYEAK (UniProt Q9UBU8) | 0.355
55 | MKI67_P46013_261_ENVLQYCR (UniProt P46013) | -0.455
56 | MPC1_Q9Y5U8_83_NWLLFACHATNEVAQLIQGGR (UniProt Q9Y5U8) | 0.0761

Row | Target | probe-labelled cysteine peptide fold change
57 | MMADHC_Q9H3L0_52_AFSTAGSSGSDESHVAAAPPDICSR (UniProt Q9H3L0) | -0.319
58 | MORC3_Q14149_349_ANNMGVGVVGIIECNFLKPTHNK (UniProt Q14149) | -0.285
59 | MRPL35_Q9NZE8_150_EFVFCNK (UniProt Q9NZE8) | -0.257
60 | MRPL16_Q9NX20_167_CEFEEVQGFLDQVAHK (UniProt Q9NX20) | 0.058
61 | MRPL2_Q5T653_213_AAGTCGVLLR (UniProt Q5T653) | 0.195
62 | MON2_Q7Z3U7_592_AELTMAALCGR (UniProt Q7Z3U7) | 0.176
63 | MPHOSPH8_Q99549_99_GYTSDDDTWEPEIHLEDCK (UniProt Q99549) | 0.297
64 | MRPS16_Q9Y3D3_79_HWIGCGAHLSK (UniProt Q9Y3D3) | 0.121
65 | MORC2_Q9Y6X9_387_DLDGMFIYNCSR (UniProt Q9Y6X9) | 0.167
66 | MRGBP_Q9NV56_38_GPGEAATSPAEETVVWSPEVEVCLFHAMLGHKPVGVNR (UniProt Q9NV56) | -0.05
67 | MLST8_Q9BVC4_34_FWQAHSGICTR (UniProt Q9BVC4) | 0.0338
68 | MRPL19_P49406_248_GIRFDLCLTEQQMK (UniProt P49406) | -0.146
69 | MICAL1_Q8TDZ2_727+747_CHTCEATLWPGGYEQHPGDGHFYCLQHLPQTDHK (UniProt Q8TDZ2) | -0.332
70 | MKI67_P46013_1479_ELFQTPVCTDKPTTHEK (UniProt P46013) | -0.26
71 | MMTAG2_Q9BU76_58_APCAGPSREEELAAVR (UniProt Q9BU76) | -0.518
72 | MLEC_Q14165_206_VCALYIMAGTVDDVPK (UniProt Q14165) | 0.132
73 | MIER1_Q8N108_263_CNFDTEEALRR (UniProt Q8N108) | 0.316
74 | MRPL39_Q9NYK5_133_DCDPGEVNK (UniProt Q9NYK5) | -0.628
